In paper PMC9036047:
No constants are given. Whether binding was seen depends on the method and setting. In cells and extracts the contact can be indirect. Here binding means that the protein was enriched with, or labelled near, the bait; the list need not be complete.

The chains behind the UniProt entries cited, without tags or fusion partners.
UniProt P08908: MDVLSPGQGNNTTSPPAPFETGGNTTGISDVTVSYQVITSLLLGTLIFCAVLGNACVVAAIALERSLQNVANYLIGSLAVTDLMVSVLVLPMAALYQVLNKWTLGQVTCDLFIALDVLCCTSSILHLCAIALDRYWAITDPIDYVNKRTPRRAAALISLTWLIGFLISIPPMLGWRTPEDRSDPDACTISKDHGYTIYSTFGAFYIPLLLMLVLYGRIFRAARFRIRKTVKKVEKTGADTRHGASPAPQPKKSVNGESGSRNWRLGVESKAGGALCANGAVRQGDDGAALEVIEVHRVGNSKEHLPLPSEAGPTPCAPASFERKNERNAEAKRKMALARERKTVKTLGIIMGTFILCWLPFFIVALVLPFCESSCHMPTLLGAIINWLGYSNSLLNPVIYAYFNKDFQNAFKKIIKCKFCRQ
UniProt P51665: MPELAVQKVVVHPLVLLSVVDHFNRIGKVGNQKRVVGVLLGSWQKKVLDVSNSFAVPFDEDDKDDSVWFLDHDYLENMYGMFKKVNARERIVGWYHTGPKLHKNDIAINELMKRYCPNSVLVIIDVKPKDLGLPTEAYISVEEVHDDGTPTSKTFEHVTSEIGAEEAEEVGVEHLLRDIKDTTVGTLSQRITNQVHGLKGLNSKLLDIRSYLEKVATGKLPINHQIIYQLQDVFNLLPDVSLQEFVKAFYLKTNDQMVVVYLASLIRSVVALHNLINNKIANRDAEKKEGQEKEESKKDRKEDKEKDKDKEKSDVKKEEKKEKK
UniProt P19474: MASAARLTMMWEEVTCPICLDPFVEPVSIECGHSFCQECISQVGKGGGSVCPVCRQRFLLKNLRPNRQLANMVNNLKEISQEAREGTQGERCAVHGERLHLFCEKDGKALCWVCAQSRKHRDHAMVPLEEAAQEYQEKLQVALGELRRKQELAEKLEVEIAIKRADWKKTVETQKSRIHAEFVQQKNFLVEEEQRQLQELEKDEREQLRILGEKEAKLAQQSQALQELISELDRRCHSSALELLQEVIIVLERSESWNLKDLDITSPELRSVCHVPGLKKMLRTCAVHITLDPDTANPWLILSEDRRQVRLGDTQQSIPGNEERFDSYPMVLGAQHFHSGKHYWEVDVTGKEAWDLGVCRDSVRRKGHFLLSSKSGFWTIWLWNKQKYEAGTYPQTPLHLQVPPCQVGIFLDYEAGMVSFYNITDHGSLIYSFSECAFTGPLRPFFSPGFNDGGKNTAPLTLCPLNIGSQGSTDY

Biological target: 5-hydroxytryptamine receptor 1A (UniProt P08908)
Assay: affinity purification with mass spectrometry; IP of HTR1A from cell lysate; silver-stained gel bands at 48 and 37 kD analysed by MS/MS

| binding | Substance |
| --- | --- |
| binds | PSMD7 (from UniProt P51665 1-324) |
| binds | TRIM21 (from UniProt P19474 1-475) (enzyme) |
